From the supplement of paper PMC6411743
± gives the standard deviation of the averaged measurements. The entries are a selection whose mix differs from that of the whole data set.

What was measured:
Test in all cases: NP40-soluble protein abundance relative to vehicle (solubility fold change) (ratio); higher = more soluble protein in presence of ATP
[1] = biological target: T1, UniProt Q9NUS5
T1 sequence (whole entry): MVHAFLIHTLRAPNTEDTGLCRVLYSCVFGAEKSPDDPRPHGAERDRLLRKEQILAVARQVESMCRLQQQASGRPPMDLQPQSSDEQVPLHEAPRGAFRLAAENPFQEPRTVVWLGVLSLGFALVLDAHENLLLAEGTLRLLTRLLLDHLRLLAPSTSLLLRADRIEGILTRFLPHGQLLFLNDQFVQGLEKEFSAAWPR
Outline: (§1)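 Jurkat crude lysate (Dounce-homogenised) was treated with eight concentrations from 0.1 to 10 mM for 10 min at room temperature, then 3 min at 37 °C. It was solubilised with 0.8% NP40 and benzonase (60 min, 4 °C) and ultracentrifuged, and the supernatant was TMT-labelled for LC-MS/MS. Intensities were vsn-normalised, and the value is the fold change against the NP40-processed vehicle per replicate, from three independent experiments.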

[2] = biological target: T2, UniProt Q9NVH6 and related entries
T2 sequence (whole entry): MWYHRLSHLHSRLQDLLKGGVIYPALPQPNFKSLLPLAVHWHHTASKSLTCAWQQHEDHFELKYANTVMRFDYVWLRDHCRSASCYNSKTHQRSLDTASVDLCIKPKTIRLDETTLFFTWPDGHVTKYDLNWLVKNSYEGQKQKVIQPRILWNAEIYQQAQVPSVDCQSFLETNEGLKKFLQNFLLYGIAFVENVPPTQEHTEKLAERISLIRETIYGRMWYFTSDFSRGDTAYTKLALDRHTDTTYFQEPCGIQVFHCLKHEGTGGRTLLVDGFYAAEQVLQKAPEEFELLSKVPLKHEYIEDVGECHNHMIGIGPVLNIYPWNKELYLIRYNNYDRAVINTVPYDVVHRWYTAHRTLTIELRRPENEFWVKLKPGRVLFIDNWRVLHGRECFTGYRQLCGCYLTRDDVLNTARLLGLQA
Outline: as §1

[3] = biological target: T3, UniProt Q9NVS9 and related entries
T3 sequence (whole entry): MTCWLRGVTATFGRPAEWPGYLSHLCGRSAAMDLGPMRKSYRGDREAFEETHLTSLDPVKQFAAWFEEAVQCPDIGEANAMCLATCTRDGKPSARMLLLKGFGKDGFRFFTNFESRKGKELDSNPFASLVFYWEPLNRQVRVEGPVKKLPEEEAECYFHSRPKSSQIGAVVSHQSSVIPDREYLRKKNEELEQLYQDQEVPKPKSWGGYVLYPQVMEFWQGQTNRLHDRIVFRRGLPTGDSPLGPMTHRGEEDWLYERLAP
Outline: as §1

[4] = biological target: T4, UniProt Q9NWS8 and related entries
T4 sequence (whole entry): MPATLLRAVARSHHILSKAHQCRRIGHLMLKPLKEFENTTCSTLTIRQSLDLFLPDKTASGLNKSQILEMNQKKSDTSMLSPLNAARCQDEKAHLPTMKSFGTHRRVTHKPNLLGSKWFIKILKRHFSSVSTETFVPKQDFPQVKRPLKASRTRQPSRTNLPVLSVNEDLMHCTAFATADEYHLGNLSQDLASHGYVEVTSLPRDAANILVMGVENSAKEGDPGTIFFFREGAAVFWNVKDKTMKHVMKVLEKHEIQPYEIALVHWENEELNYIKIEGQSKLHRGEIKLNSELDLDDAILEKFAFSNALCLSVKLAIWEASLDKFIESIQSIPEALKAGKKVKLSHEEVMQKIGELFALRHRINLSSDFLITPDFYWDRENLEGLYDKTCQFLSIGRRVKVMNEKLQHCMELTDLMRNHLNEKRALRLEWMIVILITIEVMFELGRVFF
Outline: as §1

[5] = biological target: T5, UniProt Q9P0N9 and related entries
T5 sequence (whole entry): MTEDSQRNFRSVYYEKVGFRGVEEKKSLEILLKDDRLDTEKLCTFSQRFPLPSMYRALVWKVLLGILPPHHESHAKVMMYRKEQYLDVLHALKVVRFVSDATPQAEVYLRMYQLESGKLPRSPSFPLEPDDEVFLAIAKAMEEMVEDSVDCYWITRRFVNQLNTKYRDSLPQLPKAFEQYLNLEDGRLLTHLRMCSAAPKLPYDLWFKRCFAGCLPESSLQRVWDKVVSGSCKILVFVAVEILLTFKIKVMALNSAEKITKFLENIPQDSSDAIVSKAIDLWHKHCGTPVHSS
Outline: as §1

[6] = biological target: T6, VPS45 (UniProt Q9NRW7)
T6 sequence (whole entry): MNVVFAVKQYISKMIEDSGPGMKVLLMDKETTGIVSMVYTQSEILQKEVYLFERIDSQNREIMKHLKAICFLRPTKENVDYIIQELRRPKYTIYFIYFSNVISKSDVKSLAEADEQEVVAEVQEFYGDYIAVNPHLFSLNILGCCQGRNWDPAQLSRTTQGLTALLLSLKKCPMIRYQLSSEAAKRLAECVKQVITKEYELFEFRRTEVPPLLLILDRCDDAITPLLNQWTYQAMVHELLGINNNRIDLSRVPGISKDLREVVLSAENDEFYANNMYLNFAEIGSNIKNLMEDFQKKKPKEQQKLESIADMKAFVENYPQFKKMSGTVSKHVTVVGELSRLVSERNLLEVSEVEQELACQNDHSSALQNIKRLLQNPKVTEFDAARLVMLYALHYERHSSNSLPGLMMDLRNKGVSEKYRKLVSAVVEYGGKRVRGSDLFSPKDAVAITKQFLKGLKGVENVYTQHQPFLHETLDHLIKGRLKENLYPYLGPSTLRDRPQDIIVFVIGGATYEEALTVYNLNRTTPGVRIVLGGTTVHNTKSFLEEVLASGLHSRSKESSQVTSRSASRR
Outline: as §1

## Nc1ncnc2c1ncn2[C@@H]1O[C@H](COP(=O)(O)OP(=O)(O)OP(=O)(O)O)[C@@H](O)[C@H]1O [adenosine triphosphate]
[1]; concentration: 8mM
  NP40-soluble protein abundance: 0.957 ± 0.015
[1]; concentration: 10mM
  NP40-soluble protein abundance: 0.9157 ± 0.0086
[2]; concentration: 1mM
  NP40-soluble protein abundance: 0.993 ± 0.072
[2]; concentration: 2mM
  NP40-soluble protein abundance: 1.04 ± 0.054
[2]; concentration: 4mM
  NP40-soluble protein abundance: 1.02 ± 0.026
[2]; concentration: 6mM
  NP40-soluble protein abundance: 0.943 ± 0.019
[2]; concentration: 8mM
  NP40-soluble protein abundance: 1.01 ± 0.027
[2]; concentration: 10mM
  NP40-soluble protein abundance: 0.987 ± 0.076
[3]; concentration: 1mM
  NP40-soluble protein abundance: 0.987 ± 0.018
[3]; concentration: 2mM
  NP40-soluble protein abundance: 0.9567 ± 0.0071
[3]; concentration: 4mM
  NP40-soluble protein abundance: 0.9425 ± 0.0058
[3]; concentration: 6mM
  NP40-soluble protein abundance: 0.9778 ± 0.0094
[3]; concentration: 8mM
  NP40-soluble protein abundance: 0.951 ± 0.012
[3]; concentration: 10mM
  NP40-soluble protein abundance: 0.925 ± 0.032
[4]; concentration: 1mM
  NP40-soluble protein abundance: 1 ± 0.057
[4]; concentration: 2mM
  NP40-soluble protein abundance: 0.972 ± 0.07
[4]; concentration: 4mM
  NP40-soluble protein abundance: 0.972 ± 0.11
[4]; concentration: 6mM
  NP40-soluble protein abundance: 0.919 ± 0.089
[4]; concentration: 8mM
  NP40-soluble protein abundance: 0.98 ± 0.08
[4]; concentration: 10mM
  NP40-soluble protein abundance: 0.9637 ± 0.0081
[5]; concentration: 1mM
  NP40-soluble protein abundance: 1 ± 0.071
[5]; concentration: 2mM
  NP40-soluble protein abundance: 0.996 ± 0.066
[5]; concentration: 4mM
  NP40-soluble protein abundance: 0.985 ± 0.045
[5]; concentration: 6mM
  NP40-soluble protein abundance: 0.973 ± 0.029
[5]; concentration: 8mM
  NP40-soluble protein abundance: 0.969 ± 0.029
[5]; concentration: 10mM
  NP40-soluble protein abundance: 1.06 ± 0.11
[6]; concentration: 1mM
  NP40-soluble protein abundance: 0.973 ± 0.1
[6]; concentration: 2mM
  NP40-soluble protein abundance: 0.975 ± 0.08
[6]; concentration: 4mM
  NP40-soluble protein abundance: 0.96 ± 0.082
[6]; concentration: 6mM
  NP40-soluble protein abundance: 0.908 ± 0.096
[6]; concentration: 8mM
  NP40-soluble protein abundance: 0.949 ± 0.062
[6]; concentration: 10mM
  NP40-soluble protein abundance: 0.978 ± 0.07
